Experimental data as given in paper PMC9031212.
Results are given in words; binding and its absence hold for the method and conditions named. In cells and extracts the contact can be indirect. A result given as binding can be weak or reduced; the word gives no strength.

Target: cell cycle checkpoint kinase 2 (CHK2) (chicken (endogenous in granulosa cells))
Assay: co-IP; anti-CHK2 antibody immobilised on Protein A/G magnetic beads; supernatants of cell lysates; washed three times with RIPA lysis buffer; blots probed with anti-FoxO3a, FoxK and FoxO4

- binding: binds
B1: FoxO3a (protein, UniProt F1NNE8 1-660)
chain: MAEASPPGPLSPLDVELDPEFEPQSRPRSCTWPLQRPELQASPAKPAGEPPADAASMIPEEEDDDEEGGGAAMAVGGAAPAGGEAAAAGGPEEAARPPVPLPGGGPEGPGPAPGGAAAAAGGGGLSGGGPAAAAPRKCSSRRNAWGNLSYADLITRAIESSPEKRLTLSQIYDWMVRCVPYFKDKGDNNSSAGWKNSIRHNLSLHSRFIRVQNEGTGKSSWWMINPDGGKVGKAPRRRAVSMDNSNKYTKSRGRAAKKKAALQTAQEASEDSPSQLSKWPGSPTSRSSDELDAWTDFRSRTNSNASTISGRLSPILASTELDDVQDDDAPLSPMLYSSPSSLSPSVNKPCTVELPRLTDMAGTMNLNDGLTDNLMDDLLDNITLPSSQQSPTGGMMQRSSSFPYGSKGSGLGSPSSSFNNAVFGPSSLNSLRQSPMQTIQENKQATFSSISHYNNQTLQDLLASDALSHSDVMMTQSDPLMSQASTAVSAQNSRRNIMLRNDPMMSFAAQSSQGGLVNQSLPHHQHQSHSSPLSGSRALSNSISNIGLNDSNSLGSKHQQSPVNQSMQTLSDPLSGSSLYSSSMNLPVMGHEKFPSDLDLDIFNGSLECDMESIIRSELMDADGLDFNFDSLISAQNVVSLNVGNFTGAKQASSQSWVPG
